## Primary screen of a compound library

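Whole-parasite assay of Trypanosoma brucei over 72 hours; the read-out is not stated. Tested at 10 µM. Direction is inferred from retests: higher values go with stronger inhibition. Values scatter widely below zero; nearly all retest evidence comes from the higher of the two concentrations used. Of about 2,700 compounds tested this way, about 14 (0.51%) reached 50% or more in at least one test.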

Values are the deposited “Percent Effect”, in %. How 0% and 100% were set is not recorded. Most values in the screen are low, and negative values occur. The compounds are a random part of those screened.

{"structure": "O=C(c1cn(-c2ccccc2)nn1)N1CCCC(n2cccn2)C1", "stereo": "centres unmarked", "effect": -39.89}
{"structure": "O=C(CN1CCOC(Cn2cncn2)C1)NCc1cccs1", "stereo": "centres unmarked", "effect": -99.13}
{"structure": "O=C(Nc1ccc(CCN2CCC(O)CC2)cc1)C1CCCOC1", "stereo": "centres unmarked", "effect": -49.11}
{"structure": "Cc1nnc2n1CCN(C(=O)c1cc(Br)c(Cl)[nH]1)C2", "effect": -30.7}
{"structure": "Cc1cc(CN(C)C(=O)c2ccc(N(C)C)nc2)no1", "effect": -39.17}
{"structure": "CCOC(=O)C1CCN(Cc2csc(-c3ccc(C)o3)n2)CC1", "effect": -18.34}
{"structure": "Cc1ccc(NC2CCN(C(=O)c3ccoc3C)CC2)nn1", "effect": -9.856}
{"structure": "CN(CC(=O)N1CCCC1Cn1cccn1)Cc1ccccc1", "stereo": "centres unmarked", "effect": -12.3}
{"structure": "Cc1cnn(CC2CCCN2C(=O)c2cc(C)nc3[nH]nc(C)c23)c1", "stereo": "centres unmarked", "effect": -58.03}
{"structure": "CCc1nc(CN2CCN(CC(O)c3ccccc3)CC2)no1", "stereo": "centres unmarked", "effect": -49.07}
{"structure": "CC1CN(CC(=O)N2CCOCC2)CCN1Cc1nccn1C", "stereo": "centres unmarked", "effect": -37.42}
{"structure": "O=C(Cc1cn2ccccc2n1)N1CCCC(n2cccn2)C1", "stereo": "centres unmarked", "effect": -24.51}
{"structure": "Cc1nc(C)n(CC2CN(Cc3cscn3)CCO2)n1", "stereo": "centres unmarked", "effect": -34.01}
{"structure": "CC(C)Cc1cc(C(=O)NCCN2CCCS2(=O)=O)[nH]n1", "effect": -55.4}
{"structure": "CC(NC(=O)NCCCc1n[nH]c(N)c1C#N)c1ccc(Cl)cc1", "stereo": "centres unmarked", "effect": -3.903}
{"structure": "COc1ccc2cc(C(=O)N3CCCC(n4ccnc4C)C3)[nH]c2c1", "stereo": "centres unmarked", "effect": -8.466}
{"structure": "Cc1cn2c(n1)CCC(NC(=O)c1cncnc1C)C2", "stereo": "centres unmarked", "effect": -34.73}
{"structure": "COc1ccccc1OCCNCc1c(C(C)C)nn(C)c1N(C)C", "effect": 5.498}
{"structure": "CCOc1ncccc1CNc1nnc(C)c(C)c1C#N", "effect": -61.26}
{"structure": "Cc1ccoc1C(=O)NC1CCN(Cc2ccccc2C#N)CC1", "effect": 15.78}
{"structure": "Cc1nn(C)c(C)c1C1CCCN1Cc1cccc(OCC(N)=O)c1", "stereo": "centres unmarked", "effect": 13.05}
{"structure": "CC(NC(=O)NCCS(C)(=O)=O)c1ccc2c(c1)CCC(=O)N2", "stereo": "centres unmarked", "effect": -31.22}
{"structure": "CCCN1CCCC1Cn1nc(C)cc1C", "stereo": "centres unmarked", "effect": -41.59}
{"structure": "c1cnn(CC2CN(c3ncnc4[nH]ccc34)CCO2)c1", "stereo": "centres unmarked", "effect": -26.53}
{"structure": "NC(=O)CN1CCCN(C(=O)Cc2ccc(Br)cc2)CC1", "effect": -17.81}
{"structure": "COc1c(C2CCCN2C(=O)c2cccnc2N(C)C)c(C)nn1C", "stereo": "centres unmarked", "effect": -60.76}
{"structure": "CN1CCN(c2cc(CNC(=O)c3cnccn3)ccn2)CC1", "effect": -54.72}
{"structure": "COc1ccc(NC(=O)N(C)Cc2ccsc2)cn1", "effect": -18.93}
{"structure": "O=C(CCOc1ccccc1Cl)N1CCN(c2cnccn2)CC1", "effect": -61.62}
{"structure": "Cn1ccnc1CN1CCCN(Cc2noc(C3CC3)n2)CC1", "effect": -15.01}
{"structure": "O=C(COc1ccc(Cl)cc1)N1CCN(c2cnccn2)CC1", "effect": -57.13}
{"structure": "NC(=O)CN1CCCN(C(=O)CCOc2ccccc2Cl)CC1", "effect": -10.6}
{"structure": "O=C(c1cccnc1N1CCOCC1)N1CCCC(n2cccn2)C1", "stereo": "centres unmarked", "effect": -71.68}
{"structure": "CC(C)c1nc(C2CCCN(C(=O)c3ccc(N(C)C)nn3)C2)no1", "stereo": "centres unmarked", "effect": -30.14}
{"structure": "CCc1nc(C2CCCN2CC(=O)NCCOc2ccccc2)no1", "stereo": "centres unmarked", "effect": -42.98}
{"structure": "Cc1ccccc1OCC(O)CN1CCC(Cn2cccn2)CC1", "stereo": "centres unmarked", "effect": -27.53}
{"structure": "c1cnn(CC2CCCCN2c2ncnc3ccsc23)c1", "stereo": "centres unmarked", "effect": -37.3}
{"structure": "Cc1cn2c(n1)CCC(NC(=O)c1cc(C3CC3)[nH]n1)C2", "stereo": "centres unmarked", "effect": -13.78}
{"structure": "O=C(CN1CCCC1Cn1cncn1)NCCC1=CCCCC1", "stereo": "centres unmarked", "effect": -2.425}
{"structure": "O=C1CC(N(C(=O)c2ccc(Cl)c(Cl)c2)C2CC2)C(=O)N1", "stereo": "centres unmarked", "effect": -21.13}
{"structure": "CC(NC(=O)Cn1ccc(=O)n(C)c1=O)c1cc(F)ccc1F", "stereo": "centres unmarked", "effect": -45.54}
{"structure": "CN(C)CC(=O)N1CCN(C(=O)c2cccc3[nH]ncc23)CC1", "effect": -13.29}

Measurements from “University of Dundee, Small-Polar-MMV Screening Library” (2021), ChEMBL document CHEMBL3988442.